Some of the results follow.
compound: NC(=O)c1cnc(N[C@@H]2CCCC[C@@H]2N)nc1Nc1cccc(-n2nccn2)c1; test: log2 fold change, soluble protein after heating vs DMSO (PISA); higher = thermal stabilisation; K562 lysate, 10 uM; active = over 0.2 and 3.5 SD of the protein, either way, in both replicates (recomputed)
Summary of the method: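 K562 pellets were dounce-homogenised in PBS pH 7.4 containing 1 mM MgCl2, and the crude extract, at 1 mg/mL protein, was exposed to 10 μM compound for 30 min. Aliquots were heated for 3 min across 48°C-58°C, pooled, brought to 0.5% NP-40 at 4°C and spun at 21,000xg for 90 min, with the supernatant taken as soluble protein. TMTpro 16plex LC-MS/MS with equalised channel sums quantified that protein. Values are log-two fold changes in thermal stability relative to solvent controls, taken from duplicates.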

By UniProt entry, the sequences of proteins in these tests, tags left out. Where a name states a change or a piece, a line headed by the entry shows the natural chain unless it says otherwise.
UniProt P22692: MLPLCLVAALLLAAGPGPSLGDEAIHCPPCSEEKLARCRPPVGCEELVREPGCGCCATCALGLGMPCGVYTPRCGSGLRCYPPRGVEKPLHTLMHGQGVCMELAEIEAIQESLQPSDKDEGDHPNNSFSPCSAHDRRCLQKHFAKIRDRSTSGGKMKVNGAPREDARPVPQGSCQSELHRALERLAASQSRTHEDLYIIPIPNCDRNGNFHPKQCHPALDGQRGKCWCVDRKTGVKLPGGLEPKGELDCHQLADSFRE
UniProt Q27J81, whole entry, looked up: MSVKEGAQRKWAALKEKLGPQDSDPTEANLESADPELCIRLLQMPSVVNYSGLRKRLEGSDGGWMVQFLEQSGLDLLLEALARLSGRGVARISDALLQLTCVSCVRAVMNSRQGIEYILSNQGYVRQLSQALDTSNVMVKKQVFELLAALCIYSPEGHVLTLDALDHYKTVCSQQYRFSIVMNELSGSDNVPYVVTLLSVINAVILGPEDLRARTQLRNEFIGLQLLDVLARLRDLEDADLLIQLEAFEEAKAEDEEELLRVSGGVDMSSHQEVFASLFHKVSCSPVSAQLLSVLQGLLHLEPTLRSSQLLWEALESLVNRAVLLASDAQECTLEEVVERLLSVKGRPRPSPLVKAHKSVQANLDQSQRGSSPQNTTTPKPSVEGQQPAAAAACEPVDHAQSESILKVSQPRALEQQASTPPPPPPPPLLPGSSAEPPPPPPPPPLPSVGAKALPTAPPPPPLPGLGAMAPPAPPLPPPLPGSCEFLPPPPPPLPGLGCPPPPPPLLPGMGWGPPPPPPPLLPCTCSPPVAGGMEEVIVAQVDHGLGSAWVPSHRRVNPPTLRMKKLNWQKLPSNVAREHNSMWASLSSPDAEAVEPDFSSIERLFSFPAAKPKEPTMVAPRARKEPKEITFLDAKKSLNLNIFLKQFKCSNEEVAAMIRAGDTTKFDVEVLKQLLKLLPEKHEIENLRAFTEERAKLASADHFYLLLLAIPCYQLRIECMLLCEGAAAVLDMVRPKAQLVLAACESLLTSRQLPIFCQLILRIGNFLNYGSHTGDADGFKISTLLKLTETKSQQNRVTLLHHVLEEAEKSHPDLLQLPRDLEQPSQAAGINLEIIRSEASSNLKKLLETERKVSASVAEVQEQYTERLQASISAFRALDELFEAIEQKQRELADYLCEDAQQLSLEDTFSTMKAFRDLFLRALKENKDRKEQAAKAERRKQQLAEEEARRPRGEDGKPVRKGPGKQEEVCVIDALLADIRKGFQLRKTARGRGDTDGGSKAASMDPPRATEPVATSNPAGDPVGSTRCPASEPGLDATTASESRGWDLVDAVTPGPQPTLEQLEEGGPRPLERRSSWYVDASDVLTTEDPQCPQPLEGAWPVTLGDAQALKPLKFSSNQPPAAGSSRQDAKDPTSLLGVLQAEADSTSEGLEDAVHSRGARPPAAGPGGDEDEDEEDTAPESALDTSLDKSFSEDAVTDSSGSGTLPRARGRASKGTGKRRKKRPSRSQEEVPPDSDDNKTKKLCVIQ
UniProt O43837: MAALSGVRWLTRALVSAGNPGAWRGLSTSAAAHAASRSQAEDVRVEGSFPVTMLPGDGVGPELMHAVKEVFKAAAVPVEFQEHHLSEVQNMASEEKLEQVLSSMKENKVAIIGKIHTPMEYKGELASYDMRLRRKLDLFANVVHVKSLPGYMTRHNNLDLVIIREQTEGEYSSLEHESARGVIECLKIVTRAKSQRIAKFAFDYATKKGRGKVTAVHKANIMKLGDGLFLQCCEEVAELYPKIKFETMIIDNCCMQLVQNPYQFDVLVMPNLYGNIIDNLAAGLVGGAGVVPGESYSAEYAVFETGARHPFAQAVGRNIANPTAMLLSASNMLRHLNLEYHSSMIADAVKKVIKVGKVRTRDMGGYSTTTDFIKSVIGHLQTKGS
UniProt O60921: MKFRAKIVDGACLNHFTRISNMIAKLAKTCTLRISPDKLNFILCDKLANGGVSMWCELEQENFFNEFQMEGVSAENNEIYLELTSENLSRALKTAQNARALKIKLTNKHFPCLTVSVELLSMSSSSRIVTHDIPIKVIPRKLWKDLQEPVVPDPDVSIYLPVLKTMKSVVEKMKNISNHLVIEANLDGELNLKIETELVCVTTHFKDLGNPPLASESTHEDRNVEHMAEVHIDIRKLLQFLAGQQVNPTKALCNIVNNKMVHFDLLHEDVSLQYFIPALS
UniProt P78318: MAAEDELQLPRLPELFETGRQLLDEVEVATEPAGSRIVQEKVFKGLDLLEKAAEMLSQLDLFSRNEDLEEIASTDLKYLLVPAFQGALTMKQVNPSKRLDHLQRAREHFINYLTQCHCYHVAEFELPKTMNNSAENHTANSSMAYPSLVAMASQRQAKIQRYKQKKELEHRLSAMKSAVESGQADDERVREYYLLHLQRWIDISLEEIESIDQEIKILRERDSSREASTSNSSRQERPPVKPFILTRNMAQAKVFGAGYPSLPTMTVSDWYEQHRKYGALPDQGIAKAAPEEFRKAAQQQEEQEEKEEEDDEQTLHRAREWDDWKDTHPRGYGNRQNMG
UniProt Q9P2H3, whole entry, looked up: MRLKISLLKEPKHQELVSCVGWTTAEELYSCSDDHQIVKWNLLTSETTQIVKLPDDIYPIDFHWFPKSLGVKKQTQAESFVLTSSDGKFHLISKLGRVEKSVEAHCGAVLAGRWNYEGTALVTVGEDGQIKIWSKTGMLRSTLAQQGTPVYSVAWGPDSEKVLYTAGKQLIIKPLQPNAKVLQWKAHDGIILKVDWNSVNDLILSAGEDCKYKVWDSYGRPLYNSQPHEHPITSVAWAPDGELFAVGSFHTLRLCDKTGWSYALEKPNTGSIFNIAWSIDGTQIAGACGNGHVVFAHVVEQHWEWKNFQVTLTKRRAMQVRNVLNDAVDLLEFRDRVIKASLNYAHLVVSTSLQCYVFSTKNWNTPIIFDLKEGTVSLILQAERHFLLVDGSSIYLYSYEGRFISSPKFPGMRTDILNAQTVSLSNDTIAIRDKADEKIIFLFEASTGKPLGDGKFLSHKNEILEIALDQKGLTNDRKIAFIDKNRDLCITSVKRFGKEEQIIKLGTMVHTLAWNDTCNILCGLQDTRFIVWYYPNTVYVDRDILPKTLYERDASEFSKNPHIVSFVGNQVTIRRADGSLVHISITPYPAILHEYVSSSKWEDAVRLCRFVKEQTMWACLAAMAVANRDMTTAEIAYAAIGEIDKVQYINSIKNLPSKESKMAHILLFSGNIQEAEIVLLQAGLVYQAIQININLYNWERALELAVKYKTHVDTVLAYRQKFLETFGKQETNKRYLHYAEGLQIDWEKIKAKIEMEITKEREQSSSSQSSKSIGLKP
UniProt P61604, whole entry, looked up: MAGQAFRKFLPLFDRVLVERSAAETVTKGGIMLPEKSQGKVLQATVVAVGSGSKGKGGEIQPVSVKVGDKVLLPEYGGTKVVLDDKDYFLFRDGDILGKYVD
UniProt P11717, whole entry, looked up: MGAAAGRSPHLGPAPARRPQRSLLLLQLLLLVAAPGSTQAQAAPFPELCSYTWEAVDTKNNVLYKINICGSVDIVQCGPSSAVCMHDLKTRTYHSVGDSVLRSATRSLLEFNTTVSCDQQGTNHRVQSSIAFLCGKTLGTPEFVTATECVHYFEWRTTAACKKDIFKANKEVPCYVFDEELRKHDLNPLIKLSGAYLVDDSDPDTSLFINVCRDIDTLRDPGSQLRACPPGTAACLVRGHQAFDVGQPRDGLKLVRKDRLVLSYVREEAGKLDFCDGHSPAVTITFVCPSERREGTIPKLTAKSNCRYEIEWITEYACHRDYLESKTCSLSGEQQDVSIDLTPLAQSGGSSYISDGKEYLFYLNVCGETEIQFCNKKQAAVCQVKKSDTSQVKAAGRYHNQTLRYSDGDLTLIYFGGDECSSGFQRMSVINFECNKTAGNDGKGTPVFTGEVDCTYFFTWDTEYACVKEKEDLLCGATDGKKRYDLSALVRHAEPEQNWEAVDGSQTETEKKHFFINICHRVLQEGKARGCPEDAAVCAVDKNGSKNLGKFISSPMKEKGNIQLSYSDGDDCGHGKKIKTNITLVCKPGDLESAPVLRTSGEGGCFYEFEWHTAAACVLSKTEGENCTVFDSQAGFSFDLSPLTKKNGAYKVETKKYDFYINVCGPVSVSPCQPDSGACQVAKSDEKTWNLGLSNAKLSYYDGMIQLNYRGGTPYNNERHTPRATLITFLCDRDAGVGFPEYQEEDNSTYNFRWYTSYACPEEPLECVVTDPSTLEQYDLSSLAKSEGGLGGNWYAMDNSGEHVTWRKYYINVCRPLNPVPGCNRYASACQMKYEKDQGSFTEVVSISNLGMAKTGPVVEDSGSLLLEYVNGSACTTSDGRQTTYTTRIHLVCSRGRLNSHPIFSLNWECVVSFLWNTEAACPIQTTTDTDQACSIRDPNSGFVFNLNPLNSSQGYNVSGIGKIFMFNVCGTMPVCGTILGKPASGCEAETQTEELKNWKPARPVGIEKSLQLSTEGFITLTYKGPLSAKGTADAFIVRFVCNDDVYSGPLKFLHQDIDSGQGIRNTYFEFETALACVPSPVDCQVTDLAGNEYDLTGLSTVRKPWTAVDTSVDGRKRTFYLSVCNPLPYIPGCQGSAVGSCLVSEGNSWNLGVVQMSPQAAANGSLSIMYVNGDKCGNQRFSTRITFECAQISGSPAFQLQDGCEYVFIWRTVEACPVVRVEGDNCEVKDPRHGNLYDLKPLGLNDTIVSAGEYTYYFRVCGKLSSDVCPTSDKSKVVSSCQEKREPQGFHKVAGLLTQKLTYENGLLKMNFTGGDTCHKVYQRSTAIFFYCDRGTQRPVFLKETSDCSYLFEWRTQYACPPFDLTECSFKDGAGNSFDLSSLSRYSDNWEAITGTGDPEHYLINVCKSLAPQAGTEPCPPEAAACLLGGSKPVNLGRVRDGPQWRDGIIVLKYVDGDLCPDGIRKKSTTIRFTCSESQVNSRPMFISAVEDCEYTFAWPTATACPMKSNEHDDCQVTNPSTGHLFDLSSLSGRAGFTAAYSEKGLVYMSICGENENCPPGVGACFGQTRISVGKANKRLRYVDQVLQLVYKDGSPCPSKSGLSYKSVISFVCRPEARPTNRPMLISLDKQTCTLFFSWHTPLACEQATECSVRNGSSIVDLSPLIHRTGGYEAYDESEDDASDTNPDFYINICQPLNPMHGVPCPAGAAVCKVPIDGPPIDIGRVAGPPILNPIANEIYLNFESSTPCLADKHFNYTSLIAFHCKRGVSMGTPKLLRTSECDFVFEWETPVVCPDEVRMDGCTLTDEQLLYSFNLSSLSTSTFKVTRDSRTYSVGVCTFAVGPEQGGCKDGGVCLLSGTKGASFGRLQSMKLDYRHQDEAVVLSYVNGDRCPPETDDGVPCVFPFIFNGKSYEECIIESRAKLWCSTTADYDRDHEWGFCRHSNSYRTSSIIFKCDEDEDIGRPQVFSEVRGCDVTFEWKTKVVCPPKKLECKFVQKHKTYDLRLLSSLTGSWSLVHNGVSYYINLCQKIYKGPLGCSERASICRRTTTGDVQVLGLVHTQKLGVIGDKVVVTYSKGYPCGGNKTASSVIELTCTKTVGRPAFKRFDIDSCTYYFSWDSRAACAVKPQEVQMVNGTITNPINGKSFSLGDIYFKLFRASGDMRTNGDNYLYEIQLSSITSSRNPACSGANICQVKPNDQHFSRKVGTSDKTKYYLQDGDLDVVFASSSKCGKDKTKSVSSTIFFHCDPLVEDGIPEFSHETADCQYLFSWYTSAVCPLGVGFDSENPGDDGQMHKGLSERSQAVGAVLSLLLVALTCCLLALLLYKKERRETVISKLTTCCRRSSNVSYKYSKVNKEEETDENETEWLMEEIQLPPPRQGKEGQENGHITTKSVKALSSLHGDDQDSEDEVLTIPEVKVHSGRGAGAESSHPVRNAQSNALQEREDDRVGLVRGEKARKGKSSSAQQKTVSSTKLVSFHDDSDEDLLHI
UniProt Q8NBZ0, whole entry, looked up: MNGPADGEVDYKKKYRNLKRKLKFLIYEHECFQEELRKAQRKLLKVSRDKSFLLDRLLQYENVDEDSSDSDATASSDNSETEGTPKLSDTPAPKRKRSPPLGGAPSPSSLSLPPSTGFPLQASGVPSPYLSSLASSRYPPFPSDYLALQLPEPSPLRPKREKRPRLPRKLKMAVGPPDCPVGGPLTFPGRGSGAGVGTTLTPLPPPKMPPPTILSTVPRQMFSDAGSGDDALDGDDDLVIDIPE
UniProt Q9P2X3: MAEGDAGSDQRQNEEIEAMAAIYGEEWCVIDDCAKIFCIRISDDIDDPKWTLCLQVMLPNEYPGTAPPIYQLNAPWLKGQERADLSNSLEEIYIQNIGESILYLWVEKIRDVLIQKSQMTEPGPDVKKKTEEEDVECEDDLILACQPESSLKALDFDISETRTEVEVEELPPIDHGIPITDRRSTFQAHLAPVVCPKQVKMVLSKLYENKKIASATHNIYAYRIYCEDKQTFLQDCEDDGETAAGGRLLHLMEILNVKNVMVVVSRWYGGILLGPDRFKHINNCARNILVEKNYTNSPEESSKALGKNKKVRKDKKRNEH

log2 fold change, inactive:
ICE2 (UniProt Q659A1) 0.043
IGFBP4 (UniProt P22692) 0.293
INF2 (UniProt Q27J81) 0.005
IMPDH2 (UniProt H0Y4R1) -0.01
IDH3B (UniProt O43837) -0.01
IGSF3 (UniProt O75054) 0.066
ICAM1 (UniProt P05362) -0.029
INPPL1 (UniProt O15357) 0.028
HSPA8 (UniProt E9PK54) -0.033
HUS1 (UniProt O60921) 0.016
IARS2 (UniProt Q9NSE4) 0.02
IBA57 (UniProt Q5T440) 0.009
ING3 (UniProt Q9NXR8) 0.042
IGBP1 (UniProt P78318) -0.005
IFT80 isoform 3 (UniProt Q9P2H3) 0.139
HSPE1 (UniProt P61604) -0.01
IGF2R (UniProt P11717) -0.013
HTRA2 (UniProt O43464) 0.03
INPP1 (UniProt P49441) -0.003
IKZF1 (UniProt Q13422) 0.029
INO80E (UniProt Q8NBZ0) 0.175
INPP4A (UniProt Q96PE3) 0.015
HYOU1 (UniProt J3QL06) 0.094
IMPACT (UniProt Q9P2X3) 0.071

A run of entries from the list above:
log2 fold change, inactive:
INPP1 (UniProt P49441) -0.003
IKZF1 (UniProt Q13422) 0.029

Reference: the supplement of paper PMC10849652
